According to PMC12040643:
No constants are given. Whether binding was seen depends on the method and setting. Binding seen in cells or lysates may run through a third protein. Some entries that bind do so weakly or less than the wild type.

Amino acid sequences for entries named in this document (tags omitted). A change or cut given only in a name is not applied to a line headed by its entry. Residues count along the entry.
UniProt P13612: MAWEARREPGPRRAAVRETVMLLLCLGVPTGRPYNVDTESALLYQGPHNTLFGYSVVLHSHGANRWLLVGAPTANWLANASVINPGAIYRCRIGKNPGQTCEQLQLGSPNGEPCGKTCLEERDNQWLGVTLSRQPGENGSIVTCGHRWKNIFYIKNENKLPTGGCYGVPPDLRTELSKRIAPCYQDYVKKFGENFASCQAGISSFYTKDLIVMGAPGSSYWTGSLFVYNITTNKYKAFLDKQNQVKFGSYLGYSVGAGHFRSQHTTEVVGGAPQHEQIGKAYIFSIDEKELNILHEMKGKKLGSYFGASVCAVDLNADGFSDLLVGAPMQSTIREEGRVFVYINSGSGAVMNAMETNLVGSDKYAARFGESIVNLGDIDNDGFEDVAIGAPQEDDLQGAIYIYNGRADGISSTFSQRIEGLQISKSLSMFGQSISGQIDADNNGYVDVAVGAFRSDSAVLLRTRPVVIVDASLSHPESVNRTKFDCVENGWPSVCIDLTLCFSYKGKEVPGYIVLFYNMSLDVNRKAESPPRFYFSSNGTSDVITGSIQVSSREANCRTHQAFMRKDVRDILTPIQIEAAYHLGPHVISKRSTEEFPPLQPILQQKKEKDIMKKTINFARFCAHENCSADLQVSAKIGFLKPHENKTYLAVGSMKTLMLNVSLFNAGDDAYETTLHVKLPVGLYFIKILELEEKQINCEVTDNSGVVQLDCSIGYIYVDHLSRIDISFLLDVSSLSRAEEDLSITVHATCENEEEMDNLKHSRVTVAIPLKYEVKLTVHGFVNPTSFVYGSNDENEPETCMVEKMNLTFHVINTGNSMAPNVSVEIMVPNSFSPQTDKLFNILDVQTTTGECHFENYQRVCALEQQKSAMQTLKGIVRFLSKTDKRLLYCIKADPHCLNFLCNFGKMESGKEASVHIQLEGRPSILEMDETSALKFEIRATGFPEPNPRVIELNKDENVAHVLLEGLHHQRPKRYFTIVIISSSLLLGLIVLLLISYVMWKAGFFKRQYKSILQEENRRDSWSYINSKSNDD
UniProt P05556: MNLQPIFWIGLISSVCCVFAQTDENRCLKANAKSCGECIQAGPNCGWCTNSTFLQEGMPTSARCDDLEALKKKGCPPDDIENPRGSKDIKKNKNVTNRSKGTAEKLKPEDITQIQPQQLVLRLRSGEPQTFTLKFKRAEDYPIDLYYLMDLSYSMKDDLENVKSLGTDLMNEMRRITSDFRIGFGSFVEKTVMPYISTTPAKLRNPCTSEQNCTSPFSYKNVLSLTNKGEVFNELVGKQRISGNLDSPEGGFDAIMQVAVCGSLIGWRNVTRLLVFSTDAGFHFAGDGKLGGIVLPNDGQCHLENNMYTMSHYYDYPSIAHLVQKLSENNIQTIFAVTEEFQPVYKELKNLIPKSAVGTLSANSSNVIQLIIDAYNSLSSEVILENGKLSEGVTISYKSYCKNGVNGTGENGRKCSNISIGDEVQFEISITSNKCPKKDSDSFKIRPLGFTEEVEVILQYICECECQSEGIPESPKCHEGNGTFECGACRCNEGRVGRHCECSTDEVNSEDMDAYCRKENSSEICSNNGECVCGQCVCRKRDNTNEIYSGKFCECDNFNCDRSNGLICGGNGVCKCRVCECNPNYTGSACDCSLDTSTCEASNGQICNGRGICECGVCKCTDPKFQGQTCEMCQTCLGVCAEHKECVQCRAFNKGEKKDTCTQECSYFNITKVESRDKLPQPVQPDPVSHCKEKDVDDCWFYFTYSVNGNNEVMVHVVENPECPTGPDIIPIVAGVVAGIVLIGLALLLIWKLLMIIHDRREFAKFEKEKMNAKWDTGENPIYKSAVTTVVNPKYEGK
UniProt Q08722, residues 19-323: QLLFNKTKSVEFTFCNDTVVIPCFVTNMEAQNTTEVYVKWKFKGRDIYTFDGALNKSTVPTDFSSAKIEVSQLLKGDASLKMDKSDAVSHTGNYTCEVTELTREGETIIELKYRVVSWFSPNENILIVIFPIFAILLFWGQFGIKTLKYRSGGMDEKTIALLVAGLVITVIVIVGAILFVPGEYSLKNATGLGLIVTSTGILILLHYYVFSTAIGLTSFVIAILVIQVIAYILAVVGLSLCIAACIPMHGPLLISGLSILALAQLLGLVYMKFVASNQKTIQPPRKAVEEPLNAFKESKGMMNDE
UniProt P20701: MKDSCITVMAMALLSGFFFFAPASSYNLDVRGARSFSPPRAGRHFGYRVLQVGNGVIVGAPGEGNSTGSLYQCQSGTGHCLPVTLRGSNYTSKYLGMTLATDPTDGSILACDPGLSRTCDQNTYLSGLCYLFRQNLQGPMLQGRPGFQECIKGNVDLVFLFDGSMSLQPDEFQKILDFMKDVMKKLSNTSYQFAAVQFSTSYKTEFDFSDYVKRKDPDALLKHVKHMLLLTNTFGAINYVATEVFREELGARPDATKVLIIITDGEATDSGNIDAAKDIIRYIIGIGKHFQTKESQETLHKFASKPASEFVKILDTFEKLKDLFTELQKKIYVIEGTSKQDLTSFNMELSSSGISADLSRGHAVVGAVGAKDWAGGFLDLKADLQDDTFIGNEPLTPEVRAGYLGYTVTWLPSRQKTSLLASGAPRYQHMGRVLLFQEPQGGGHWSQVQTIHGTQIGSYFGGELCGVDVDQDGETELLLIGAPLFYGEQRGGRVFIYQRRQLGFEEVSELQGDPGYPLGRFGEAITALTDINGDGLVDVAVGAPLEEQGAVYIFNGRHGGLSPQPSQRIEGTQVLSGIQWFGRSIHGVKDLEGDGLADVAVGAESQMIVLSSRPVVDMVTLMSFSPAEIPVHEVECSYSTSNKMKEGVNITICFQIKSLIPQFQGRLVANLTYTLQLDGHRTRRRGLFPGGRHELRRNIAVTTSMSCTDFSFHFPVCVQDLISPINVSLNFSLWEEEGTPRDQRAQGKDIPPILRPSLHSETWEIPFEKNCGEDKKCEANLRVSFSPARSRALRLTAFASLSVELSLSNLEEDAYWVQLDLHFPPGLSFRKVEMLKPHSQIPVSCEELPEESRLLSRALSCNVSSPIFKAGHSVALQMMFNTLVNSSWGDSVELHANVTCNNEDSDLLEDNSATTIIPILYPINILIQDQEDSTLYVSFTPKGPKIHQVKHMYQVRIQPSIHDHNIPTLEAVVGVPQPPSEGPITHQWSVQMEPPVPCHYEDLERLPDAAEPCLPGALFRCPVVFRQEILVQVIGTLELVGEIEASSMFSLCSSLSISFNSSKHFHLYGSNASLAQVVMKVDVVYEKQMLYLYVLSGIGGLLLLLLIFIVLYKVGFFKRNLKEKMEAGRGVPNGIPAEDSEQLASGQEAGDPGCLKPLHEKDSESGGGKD

How the values were obtained:
[1] = target: integrin α4β1 (human (endogenous in Jurkat)) (UniProt P13612+P05556); test: co-IP; endogenous proteins of human Jurkat cells lysed in RIPA solution with PMSF; lysate with anti-CD47, anti-integrin subunit α4 or anti-integrin subunit β1 antibody at 4°C overnight, Protein G sepharose beads 3 h, western blot; isotype control antibody as negative; the antibodies of the co-IP with integrin αLβ2 are not told
[2] = target: CD47 (human (endogenous in Jurkat)) (UniProt Q08722); test: as above

Row | binding [1] | binding [2] | Substance
1 | binds |  | CD47 (from UniProt Q08722 19-323) (receptor)
2 |  | binds | integrin α4β1 (from UniProt P13612 34-1032; P05556 21-798) (complex)
3 |  | no binding | integrin αLβ2 (from UniProt P20701 26-1170; P05107 23-769) (complex)
